In paper PMC8304009:
No constants are given. Whether binding was seen depends on the method and setting. In cells and extracts the contact can be indirect. Some entries that bind do so weakly or less than the wild type. Sequences can lack the tags named with a protein.

Protein sequences, listed by entry. Tags and fused reporters are not part of them.
UniProt P51946: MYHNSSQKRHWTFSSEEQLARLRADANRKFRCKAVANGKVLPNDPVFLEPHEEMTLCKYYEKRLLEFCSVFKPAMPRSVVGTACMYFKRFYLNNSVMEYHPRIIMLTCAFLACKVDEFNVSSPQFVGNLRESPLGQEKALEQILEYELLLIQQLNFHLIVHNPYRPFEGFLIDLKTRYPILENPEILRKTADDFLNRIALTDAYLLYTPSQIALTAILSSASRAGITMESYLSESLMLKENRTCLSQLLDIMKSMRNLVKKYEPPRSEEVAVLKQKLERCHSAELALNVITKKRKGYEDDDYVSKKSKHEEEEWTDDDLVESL
UniProt P50613: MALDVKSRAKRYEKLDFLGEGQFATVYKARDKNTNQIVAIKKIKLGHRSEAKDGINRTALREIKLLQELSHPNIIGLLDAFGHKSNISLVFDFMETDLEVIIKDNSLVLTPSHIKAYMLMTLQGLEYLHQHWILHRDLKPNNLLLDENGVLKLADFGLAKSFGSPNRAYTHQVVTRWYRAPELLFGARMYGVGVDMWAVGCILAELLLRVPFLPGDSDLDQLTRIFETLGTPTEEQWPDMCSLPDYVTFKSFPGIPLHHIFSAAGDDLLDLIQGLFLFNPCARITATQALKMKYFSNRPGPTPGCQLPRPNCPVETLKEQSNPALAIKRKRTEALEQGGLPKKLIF
UniProt P51948: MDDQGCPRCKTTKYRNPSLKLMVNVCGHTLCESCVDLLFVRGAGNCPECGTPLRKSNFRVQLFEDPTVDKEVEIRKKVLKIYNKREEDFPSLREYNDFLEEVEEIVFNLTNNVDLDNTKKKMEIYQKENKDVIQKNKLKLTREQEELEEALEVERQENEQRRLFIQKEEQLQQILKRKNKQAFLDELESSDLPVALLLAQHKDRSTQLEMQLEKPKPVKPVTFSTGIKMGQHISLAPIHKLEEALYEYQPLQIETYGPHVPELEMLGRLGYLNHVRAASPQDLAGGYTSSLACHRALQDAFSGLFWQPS
UniProt P50750: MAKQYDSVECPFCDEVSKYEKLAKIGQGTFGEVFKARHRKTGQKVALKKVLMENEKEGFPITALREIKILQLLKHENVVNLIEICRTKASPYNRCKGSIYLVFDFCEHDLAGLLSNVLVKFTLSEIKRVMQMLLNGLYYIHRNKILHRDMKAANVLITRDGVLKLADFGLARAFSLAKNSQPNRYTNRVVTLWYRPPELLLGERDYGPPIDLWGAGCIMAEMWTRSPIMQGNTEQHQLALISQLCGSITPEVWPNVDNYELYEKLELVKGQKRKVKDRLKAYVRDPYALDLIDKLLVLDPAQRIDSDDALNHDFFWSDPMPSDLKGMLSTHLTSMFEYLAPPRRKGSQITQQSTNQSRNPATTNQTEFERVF

What was measured:
Experiment in all cases: co-IP; transiently transfected HEK293T cells; lysis buffer 20 mM Tris-Cl pH 7.5, 0.5% NP-40, 150 mM NaCl; immunoprecipitation with anti-Flag antibody and protein G-agarose at 4 °C; Western blot
[1] = molecular target: Flag-tagged cyclin H (human) (UniProt P51946)
Flag-tagged CDK7 (human) = Flag-tagged CDK7 (human) (UniProt P50613)
[2] = molecular target: Flag-tagged MNAT1 (human) (UniProt P51948)
CDK9 (human) = CDK9 (human) (UniProt P50750)

Measured: binding

B1: HA-OGFOD1 (protein, UniProt Q8N543 1-542)
chain: MNGKRPAEPGPARVGKKGKKEVMAEFSDAVTEETLKKQVAEAWSRRTPFSHEVIVMDMDPFLHCVIPNFIQSQDFLEGLQKELMNLDFHEKYNDLYKFQQSDDLKKRREPHISTLRKILFEDFRSWLSDISKIDLESTIDMSCAKYEFTDALLCHDDELEGRRIAFILYLVPPWDRSMGGTLDLYSIDEHFQPKQIVKSLIPSWNKLVFFEVSPVSFHQVSEVLSEEKSRLSISGWFHGPSLTRPPNYFEPPIPRSPHIPQDHEILYDWINPTYLDMDYQVQIQEEFEESSEILLKEFLKPEKFTKVCEALEHGHVEWSSRGPPNKRFYEKAEESKLPEILKECMKLFRSEALFLLLSNFTGLKLHFLAPSEEDEMNDKKEAETTDITEEGTSHSPPEPENNQMAISNNSQQSNEQTDPEPEENETKKESSVPMCQGELRHWKTGHYTLIHDHSKAEFALDLILYCGCEGWEPEYGGFTSYIAKGEDEELLTVNPESNSLALVYRDRETLKFVKHINHRSLEQKKTFPNRTGFWDFSFIYYE
binds: all assays above
